{
  "source": "PubChem BioAssay AID1508600",
  "about": "(Functional Genomics Laboratory (NCATS/FGL), 2020)",
  "note": "Among all 53,000 sequences or so, about 3,700 (7%) were called active.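 The calls were made as follows: active = gene knockdowns whose robust z-score for IL-1 alpha signal is at least 2 or at most -2, so actives lie on both sides; inactive = the rest.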 The list shows a part of the results.",
  "data": [
    {"assay": "Components of the Cytosolic LPS Sensing Pathway: Gene Identification via Genome-wide siRNA Screen;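 also: robust z of the log signal after scaling to non-targeting control siRNA wells of the plate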", "conditions": "RAW264.7 macrophages, IL-1a HTRF, actives lie on both sides, screened at 100 nM (by protocol), cells primed 5 h with Pam3CSK4 first", "how_it_was_run": "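Knockdown: 100 nM siRNA, 48h, RAW264.7. Stimulation: Pam3CSK4 5 h, then LipidA via TransIT-TKO 24 h. Output: supernatant IL-1a HTRF, negative-control-normalized, log robust z-score; viability by CellTiter-Glo.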", "values": [
      {"sequence": "GGAAGAAGUCCAACAGCACTT against Foxj3", "z-score": "inactive: -1.96"},
      {"sequence": "GGCUACCCUUUUGAACCUCTT against Psmd3", "z-score": "active: -2.81"},
      {"sequence": "GGACAAGGUCUUUAAUGUUTT against Fbxo3", "z-score": "inactive: -0.263"},
      {"sequence": "GCCAGAACAGAAUCCAGGGTT against Sftpb", "z-score": "inactive: 0.0141"},
      {"sequence": "GGGUCUUUCCAUCUACCUCTT against Magel2", "z-score": "inactive: 1.18"},
      {"sequence": "GGUACAGACCUUUGAAAUATT against Apobec2", "z-score": "inactive: -0.125"},
      {"sequence": "GGCAAACCGACAGACUUCUTT against Riok1", "z-score": "inactive: -0.033"},
      {"sequence": "GGAUCAGGUACACAGCAAGTT against Eci1", "z-score": "inactive: -1.58"},
      {"sequence": "GGAUCCUAUAUGUUCUUUGTT against Cabp2", "z-score": "inactive: -0.00915"},
      {"sequence": "GCCACUACAUAAAAUAGUCTT against Ube2z", "z-score": "inactive: 0.0966"},
      {"sequence": "GGACGUAGCUAUGGAGGAUTT against 1810009A15Rik", "z-score": "inactive: -1.83"},
      {"sequence": "GGCUAGACUACAUCACAGCTT against Pfdn6", "z-score": "inactive: 0.818"},
      {"sequence": "GGAACACAAAUUGUGCUUATT against Zfp462", "z-score": "inactive: 0.199"},
      {"sequence": "GGAUGGACUCUGUUCCUGUTT against Susd2", "z-score": "inactive: 0.956"},
      {"sequence": "GGCUGACAAGAGAUUUAAATT against 4930430F08Rik", "z-score": "inactive: -0.703"},
      {"sequence": "GGCUGAGGCUCAUUACAAGTT against Zfp385c", "z-score": "inactive: -0.843"},
      {"sequence": "CCUUCUCCUCGUGCAAGUATT against Cort", "z-score": "active: 2.05"},
      {"sequence": "GGCAAAUUUGGAAACGUGUTT against Aurkb", "z-score": "inactive: -0.0577"},
      {"sequence": "GCACUUUGGUUUUACCGCCTT against Zfp385a", "z-score": "inactive: 0.518"},
      {"sequence": "GGGUUAAUCCCUAUCUCUUTT against Tfe3", "z-score": "inactive: 0.419"},
      {"sequence": "CCUUAUCUCUACCAUCGGUTT against Hyal2", "z-score": "inactive: 0.0745"},
      {"sequence": "GGAUGAAGGAACUAAAUAUTT against Cog3", "z-score": "active: -2.15"},
      {"sequence": "GGUAAUAAACGGUAAAUUGTT against B430306N03Rik", "z-score": "inactive: -0.763"},
      {"sequence": "GCUUGACUUGGUAUGUUUATT against Ces2e", "z-score": "inactive: 1.61"},
      {"sequence": "GGUAUUCAGAAAUAUCAAGTT against Cpq", "z-score": "inactive: 0.315"},
      {"sequence": "CCAAUGUCAAGCAACUUCATT against Arnt2", "z-score": "inactive: -0.287"},
      {"sequence": "GGAAAAGCUACCUGUGUCATT against Tril", "z-score": "inactive: -1.88"},
      {"sequence": "GGAAGUAUGUCCAGUCAUATT against Ifit3", "z-score": "inactive: 0.379"},
      {"sequence": "CCUUUAGGUACCACGAGUGTT against Large2", "z-score": "inactive: -0.965"},
      {"sequence": "GGAAGUACUAUUACUGGACTT against Epha7", "z-score": "inactive: 0.149"},
      {"sequence": "GGAAUUGGCAACAUAAAAATT against Vldlr", "z-score": "inactive: -0.96"},
      {"sequence": "GGUAGUGGAGUUCAAGUCCTT against Dnah1", "z-score": "inactive: 0.0582"},
      {"sequence": "GGGCAAGUAUACCUUCAAUTT against Morn5", "z-score": "inactive: -0.016"},
      {"sequence": "GGUCCACAAGUUCAUCGUCTT against Rpa1", "z-score": "inactive: -1.13"},
      {"sequence": "GGUAUCUUCUCUUGGAAAATT against Tex12", "z-score": "inactive: -0.533"},
      {"sequence": "GGGUCCAUGAACUCAAGAUTT against Rrnad1", "z-score": "inactive: 0.473"},
      {"sequence": "CGGUCCACAUGAUCAUUCCTT against Dlg2", "z-score": "inactive: 1.79"},
      {"sequence": "GGAGCUGGAAAGUUACCGATT against Bdh2", "z-score": "inactive: 0.238"},
      {"sequence": "GGACAGCUACAAGAGGAGATT against Fbxl4", "z-score": "inactive: 1.44"},
      {"sequence": "GGAGGAACAGAGAGUUUGGTT against Kifc2", "z-score": "inactive: 0.429"},
      {"sequence": "GCUAAUGAUACAGAAGUUGTT against Snrpb2", "z-score": "inactive: 0.661"},
      {"sequence": "CCCACACAAUUCUCAUGGGTT against Olfr366", "z-score": "inactive: 0.661"},
      {"sequence": "CGACCCAUCCAUCUUUAUCTT against Dlg4", "z-score": "inactive: 0.683"},
      {"sequence": "GGUAAAAGAGUCGUGUUUCTT against Amigo2", "z-score": "inactive: -0.437"},
      {"sequence": "GGCUACAUUUCUGUUCUGATT against H2bc6", "z-score": "inactive: -0.305"},
      {"sequence": "GGGAAUCAACGCAAAGUUGTT against Pcdhga5", "z-score": "inactive: -0.00294"},
      {"sequence": "CCUAUACCAGAUUUACAGGTT against Mtx1", "z-score": "inactive: 1.09"},
      {"sequence": "GGAAGUCCUUAGGUUUGGCTT against S1pr5", "z-score": "inactive: 1.61"},
      {"sequence": "GCAAAUUGGUCAUCGACUGTT against Alg1", "z-score": "inactive: 0.0456"},
      {"sequence": "GGCAACGGUUGAAUAAACATT against Mrgpra3", "z-score": "inactive: -1.36"},
      {"sequence": "GCGCAAUUAAAGAAGAACATT against Tcerg1", "z-score": "inactive: 1.22"},
      {"sequence": "GGAAUUUUAUCAUUGGGACTT against Wdr66", "z-score": "inactive: -0.828"},
      {"sequence": "GCUUGUGGAUUUUUAGUGATT against Mtfr2", "z-score": "inactive: 1.12"},
      {"sequence": "CCCUCGAAAAGACAGUGAGTT against Tbx1", "z-score": "inactive: 0.00419"},
      {"sequence": "GGUCAACUAAGUUAAAUGGTT against Pnma2", "z-score": "inactive: 0.666"},
      {"sequence": "GCUCUCACAGGAUAAGGCUTT against Cryga", "z-score": "inactive: -0.126"},
      {"sequence": "GGCCCAAGAGCAUUCUGGATT against Slc25a19", "z-score": "inactive: 0.552"},
      {"sequence": "GGCUUUGCUAGACACGGCUTT against Crtc3", "z-score": "inactive: -1.7"},
      {"sequence": "GCGAGCUGUAAAUGGAUCUTT against Gper1", "z-score": "inactive: -0.116"},
      {"sequence": "GGACGGAGGAUUCUGAAACTT against Prepl", "z-score": "active: 2.42"},
      {"sequence": "CCCUGAAGGCUUACUUUUUTT against Cfap299", "z-score": "inactive: -0.231"},
      {"sequence": "GGAAUGAUUUGGAAGAUAUTT against C1galt1c1", "z-score": "inactive: -1.14"},
      {"sequence": "GCUAAUCACUGAAUGCUUCTT against Atxn10", "z-score": "inactive: -0.768"},
      {"sequence": "GGCCAUAUUUGUUGUUGUUTT against Phgr1", "z-score": "inactive: -0.342"},
      {"sequence": "GGACAGUUCAGAACAAAUUTT against Ccbe1", "z-score": "inactive: -0.168"},
      {"sequence": "GCUAAGCUUGUCUAAAAUCTT against Ttk", "z-score": "inactive: 0.0991"},
      {"sequence": "CCCAAAGCGUGACUGUCAATT against Sema4b", "z-score": "inactive: -0.623"},
      {"sequence": "GGAACUAACAGCCCUACUATT against Sprn", "z-score": "inactive: -0.601"}
    ]}
  ]
}
